According to doi:10.1101/783373 (bioRxiv, 2019):
No constants are given. Whether binding was seen depends on the method and setting. For some of these results: Binding seen in cells or lysates may run through a third protein. Some entries that bind do so weakly or less than the wild type. Where a sequence is shown, tags or fusion partners need not be part of it.

How the values were obtained:
[1] = target: T1, His6-MEIG1 (human meiosis expressed gene 1 protein) (human) (UniProt Q5JSS6); experiment: pull-down
T1 sequence: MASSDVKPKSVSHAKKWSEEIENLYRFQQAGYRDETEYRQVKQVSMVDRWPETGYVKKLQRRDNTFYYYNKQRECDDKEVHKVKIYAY

[2] = target: T1, His6-MEIG1 (human meiosis expressed gene 1 protein) (human); experiment: SEC

Substance	binding [1]	binding [2]
PACRG full-length E86A (from UniProt Q96M98-2 1-257)	binds	–
PACRG full-length E86K (rare human variant) (from UniProt Q96M98-2 1-257)	–	binds
PACRG full-length E252K (rare human variant) (from UniProt Q96M98-2 1-257)	–	binds
PACRG full-length R160Q (rare human variant) (from UniProt Q96M98-2 1-257)	–	binds
PACRG full-length Y76C (rare human variant) (from UniProt Q96M98-2 1-257)	–	binds
human PACRG, full-length short isoform (257 a.a.), wild type (from UniProt Q96M98-2 1-257)	binds	binds
